Data taken from ChEMBL document CHEMBL1932986, “Synthesis and in vitro antimycobacterial activity of compounds derived from (R)- and (S)-2-amino-1-butanol - The crucial role of the configuration” (Eur J Med Chem, 2012).

How the values were obtained:
Type in all cases: functional, organism-based
Staphylococcus aureus [1] = assay: Antibacterial activity against Staphylococcus aureus NRRL B 313 at 20 mg/ml after 24 hrs by agar diffusion test
Escherichia coli [2] = assay: Antibacterial activity against Escherichia coli ATCC 8739 at 20 mg/ml after 24 hrs by agar diffusion test
Staphylococcus aureus [3] = assay: Antibacterial activity against Staphylococcus aureus NRRL B 313 at 4 mg/ml after 24 hrs by agar diffusion test
Escherichia coli [4] = assay: Antibacterial activity against Escherichia coli ATCC 8739 at 4 mg/ml after 24 hrs by agar diffusion test

GENTAMICIN
inhibition zone (IZ) (Staphylococcus aureus [1]): 35 mm
inhibition zone (IZ) (Escherichia coli [2]): 31 mm
inhibition zone (IZ) (Staphylococcus aureus [3]): 27 mm
inhibition zone (IZ) (Escherichia coli [4]): 25 mm
